Measurements from patent US20060003896A1, “Novel diterpenoid compounds imparting stress resistance to plants” (National Institute of Agrobiological Sciences, priority 2002, published 2006).

Test: Quantification of endogenous amount of the active substance in tobacco leaves (HPLC)

CC(/C=C/[C@@H]1[C@@]2(C)CCCC(C)(C)[C@@H]2CC[C@@]1(C)O)=C\CO [WAF-1, (11E,13E)-labda-11,13-diene-8α,15-diol]
endogenous content in leaves (30 minutes after wounding): 32±4 ng/g FW | increase of endogenous content after wounding (30 minutes after wounding): 1.3 fold | endogenous content in leaves (180 minutes after wounding): 60±7 ng/g FW | increase of endogenous content after wounding (180 minutes after wounding): about 3 fold | endogenous content in leaves (healthy plant leaves): 24 ng/g FW
